PubChem BioAssay AID1508597 – Cure First – 2020

Assay: 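Genes whose silencing sensitises or protects ovarian cancer cells against rucaparib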 (primary screen)
System: human ovarian carcinoma lines grown from tumours: OCI-P5x (papillary serous) and OCI-C5x (clear cell)
Reagent: siRNA pool against human genes, 1.25 pmol siRNA per well
Timing: 72 h or 96 h, depending on the cell culture
Conditions: rucaparib 20 µM (about IC30) or vehicle, present until read-out
Read-out: 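Luminescent ATP-based viability assay read 72 or 96 h after transfection, depending on culture, given as normalised percent viability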
Scale: viability, normalised: higher = more viable cells remaining
Hit rule: 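Active when normalised viability falls below 80 percent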
Calls: active = viability under 80%; inactive = viability 80% or more
Here is an unselected part of about 2,100 deposited reagents. 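Calls flag viability under 80% in either arm, not effects specific to rucaparib; the reference for percent is not stated.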 Unmarked entries are inactive. A reagent listed more than once was tested more than once; the source does not tell the runs apart. Not stated in the record: the 100% reference.

CLDN23, rucaparib or vehicle Rucaparib, cell line OCI-C5x (clear cell), technical replicate 1 showed viability, normalised (%) = 47.3 (active). With CLDN23, rucaparib or vehicle Rucaparib, cell line OCI-C5x (clear cell), technical replicate 2 the deposit lists viability, normalised (%) = 52.2 (active). For CLDN23, rucaparib or vehicle Rucaparib, cell line OCI-C5x (clear cell), technical replicate 3, the values are viability, normalised (%) = 33.4 (active). CLDN23, rucaparib or vehicle Rucaparib, cell line OCI-P5x (serous), technical replicate 1 gave viability, normalised (%) = 64.3 (active). With CLDN23, rucaparib or vehicle Rucaparib, cell line OCI-P5x (serous), technical replicate 2 the deposit lists viability, normalised (%) = 70.7 (active). CLDN23, rucaparib or vehicle Rucaparib, cell line OCI-P5x (serous), technical replicate 3 gave viability, normalised (%) = 62.6 (active).

With CLDN23, rucaparib or vehicle Vehicle, cell line OCI-C5x (clear cell), technical replicate 1 the deposit lists viability, normalised (%) = 32.2 (active). With CLDN23, rucaparib or vehicle Vehicle, cell line OCI-C5x (clear cell), technical replicate 2, the entry reads viability, normalised (%) = 39.8 (active). CLDN23, rucaparib or vehicle Vehicle, cell line OCI-C5x (clear cell), technical replicate 3 gave viability, normalised (%) = 46.5 (active). CLDN23, rucaparib or vehicle Vehicle, cell line OCI-P5x (serous), technical replicate 1 gave viability, normalised (%) = 52.7 (active). CLDN23, rucaparib or vehicle Vehicle, cell line OCI-P5x (serous), technical replicate 2 scored viability, normalised (%) = 70.6 (active). CLDN23, rucaparib or vehicle Vehicle, cell line OCI-P5x (serous), technical replicate 3 gave viability, normalised (%) = 72.6 (active).

For RCBTB1, rucaparib or vehicle Rucaparib, cell line OCI-C5x (clear cell), technical replicate 1 the deposit lists viability, normalised (%) = 46.7 (active). For RCBTB1, rucaparib or vehicle Rucaparib, cell line OCI-C5x (clear cell), technical replicate 2 the deposit lists viability, normalised (%) = 57.8 (active). RCBTB1, rucaparib or vehicle Rucaparib, cell line OCI-C5x (clear cell), technical replicate 3 showed viability, normalised (%) = 41.8 (active). For RCBTB1, rucaparib or vehicle Rucaparib, cell line OCI-P5x (serous), technical replicate 1, the entry reads viability, normalised (%) = 53.5 (active). RCBTB1, rucaparib or vehicle Rucaparib, cell line OCI-P5x (serous), technical replicate 2 showed viability, normalised (%) = 41 (active). With RCBTB1, rucaparib or vehicle Rucaparib, cell line OCI-P5x (serous), technical replicate 3 the deposit lists viability, normalised (%) = 52.7 (active).

For RCBTB1, rucaparib or vehicle Vehicle, cell line OCI-C5x (clear cell), technical replicate 1, the values are viability, normalised (%) = 59.2 (active). With RCBTB1, rucaparib or vehicle Vehicle, cell line OCI-C5x (clear cell), technical replicate 2 the deposit lists viability, normalised (%) = 44.1 (active). RCBTB1, rucaparib or vehicle Vehicle, cell line OCI-C5x (clear cell), technical replicate 3 showed viability, normalised (%) = 56.2 (active). RCBTB1, rucaparib or vehicle Vehicle, cell line OCI-P5x (serous), technical replicate 1 gave viability, normalised (%) = 72.9 (active). With RCBTB1, rucaparib or vehicle Vehicle, cell line OCI-P5x (serous), technical replicate 2, the values are viability, normalised (%) = 73.5 (active). With RCBTB1, rucaparib or vehicle Vehicle, cell line OCI-P5x (serous), technical replicate 3 the deposit lists viability, normalised (%) = 79.8 (active).

Already shown: entries from further up.
RCBTB1, rucaparib or vehicle Rucaparib, cell line OCI-P5x (serous), technical replicate 1 — viability, normalised (%) = 53.5 (active)
RCBTB1, rucaparib or vehicle Rucaparib, cell line OCI-P5x (serous), technical replicate 2 — viability, normalised (%) = 41 (active)
RCBTB1, rucaparib or vehicle Rucaparib, cell line OCI-P5x (serous), technical replicate 3 — viability, normalised (%) = 52.7 (active)
RCBTB1, rucaparib or vehicle Vehicle, cell line OCI-C5x (clear cell), technical replicate 1 — viability, normalised (%) = 59.2 (active)
RCBTB1, rucaparib or vehicle Vehicle, cell line OCI-C5x (clear cell), technical replicate 2 — viability, normalised (%) = 44.1 (active)
RCBTB1, rucaparib or vehicle Vehicle, cell line OCI-C5x (clear cell), technical replicate 3 — viability, normalised (%) = 56.2 (active)
RCBTB1, rucaparib or vehicle Vehicle, cell line OCI-P5x (serous), technical replicate 1 — viability, normalised (%) = 72.9 (active)

More entries follow:
For MGMT, rucaparib or vehicle Rucaparib, cell line OCI-C5x (clear cell), technical replicate 1, the entry reads viability, normalised (%) = 52.4 (active). With MGMT, rucaparib or vehicle Rucaparib, cell line OCI-C5x (clear cell), technical replicate 1 the deposit lists viability, normalised (%) = 49.8 (active). MGMT, rucaparib or vehicle Rucaparib, cell line OCI-C5x (clear cell), technical replicate 2 gave viability, normalised (%) = 44.6 (active). MGMT, rucaparib or vehicle Rucaparib, cell line OCI-C5x (clear cell), technical replicate 2 scored viability, normalised (%) = 48.3 (active). For MGMT, rucaparib or vehicle Rucaparib, cell line OCI-C5x (clear cell), technical replicate 3, the entry reads viability, normalised (%) = 49.5 (active). With MGMT, rucaparib or vehicle Rucaparib, cell line OCI-C5x (clear cell), technical replicate 3, the values are viability, normalised (%) = 60.6 (active).

MGMT, rucaparib or vehicle Rucaparib, cell line OCI-P5x (serous), technical replicate 1 showed viability, normalised (%) = 52.6 (active). MGMT, rucaparib or vehicle Rucaparib, cell line OCI-P5x (serous), technical replicate 1 showed viability, normalised (%) = 84.2. For MGMT, rucaparib or vehicle Rucaparib, cell line OCI-P5x (serous), technical replicate 2, the values are viability, normalised (%) = 88.9. MGMT, rucaparib or vehicle Rucaparib, cell line OCI-P5x (serous), technical replicate 2 showed viability, normalised (%) = 63.2 (active). With MGMT, rucaparib or vehicle Rucaparib, cell line OCI-P5x (serous), technical replicate 3 the deposit lists viability, normalised (%) = 72.4 (active). MGMT, rucaparib or vehicle Rucaparib, cell line OCI-P5x (serous), technical replicate 3 scored viability, normalised (%) = 73.3 (active).

MGMT, rucaparib or vehicle Vehicle, cell line OCI-C5x (clear cell), technical replicate 1 showed viability, normalised (%) = 57.6 (active). MGMT, rucaparib or vehicle Vehicle, cell line OCI-C5x (clear cell), technical replicate 1 gave viability, normalised (%) = 44.3 (active). MGMT, rucaparib or vehicle Vehicle, cell line OCI-C5x (clear cell), technical replicate 2 scored viability, normalised (%) = 72 (active). MGMT, rucaparib or vehicle Vehicle, cell line OCI-C5x (clear cell), technical replicate 2 scored viability, normalised (%) = 42.1 (active). For MGMT, rucaparib or vehicle Vehicle, cell line OCI-C5x (clear cell), technical replicate 3, the entry reads viability, normalised (%) = 60.1 (active). MGMT, rucaparib or vehicle Vehicle, cell line OCI-C5x (clear cell), technical replicate 3 showed viability, normalised (%) = 42.3 (active).

For MGMT, rucaparib or vehicle Vehicle, cell line OCI-P5x (serous), technical replicate 1 the deposit lists viability, normalised (%) = 79.4 (active). For MGMT, rucaparib or vehicle Vehicle, cell line OCI-P5x (serous), technical replicate 1 the deposit lists viability, normalised (%) = 73.8 (active). MGMT, rucaparib or vehicle Vehicle, cell line OCI-P5x (serous), technical replicate 2 gave viability, normalised (%) = 80.8. MGMT, rucaparib or vehicle Vehicle, cell line OCI-P5x (serous), technical replicate 2 showed viability, normalised (%) = 72.2 (active). For MGMT, rucaparib or vehicle Vehicle, cell line OCI-P5x (serous), technical replicate 3, the values are viability, normalised (%) = 71.4 (active). With MGMT, rucaparib or vehicle Vehicle, cell line OCI-P5x (serous), technical replicate 3, the entry reads viability, normalised (%) = 67.1 (active).
